# According to PMC7819943, “Rice protein-binding microarrays: a tool to detect cis-acting elements near promoter regions in rice”:
# Protein sequences, listed by entry. Tags and fused reporters are not part of them.
# UniProt Q0JBA9, entry or part of it: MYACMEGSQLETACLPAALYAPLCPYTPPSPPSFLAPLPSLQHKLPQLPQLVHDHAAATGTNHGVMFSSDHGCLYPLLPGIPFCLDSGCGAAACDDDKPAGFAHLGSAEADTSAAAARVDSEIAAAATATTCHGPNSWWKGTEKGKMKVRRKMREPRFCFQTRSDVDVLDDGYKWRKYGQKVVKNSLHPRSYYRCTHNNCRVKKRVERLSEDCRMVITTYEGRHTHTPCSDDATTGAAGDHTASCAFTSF
# Some of the results follow.
# Target: OsWRKY34 (Oryza sativa, UniProt Q0JBA9 1-250)
# Assay: protein-binding microarray (RPBM); PBS, 2% BSA, 51.3 ng/ul salmon testes DNA, 50 uM zinc acetate, 200 nM TF, 25 C, 1 h; high values mean tight binding
# Conditions: protein: recombinant; tags: N-terminal polyhistidine and DsRed monomer fusion (pET32a); label: CyDye5-dUTP incorporated in the synthesized complementary strand; 3' TTTTT single-stranded linker to array surface; dsDNA, one strand shown
# Outline: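 The binding signal is fluorescence intensity per feature, in arbitrary units, read on an Axon 4000B scanner. Polyhistidine- and DsRed-tagged transcription factors (N-terminal fusions) from E. coli BL21-CodonPlus were purified on Ni–NTA and applied at 200 nM for 1 h at 25 °C to a double-stranded, BSA-blocked custom Agilent array in buffer with 50 µM zinc acetate.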
row,Sequence,binding signal
1,TTGGTTGATTTTGATTGCTTTGCTCCTTTTCTGACTTGCTCGGAGTCACCTAGTGCAG,9410 fluorescence intensity (a.u.)
2,GAATTCGTGACCTGACTCACTCACATACTATCAAAAATTTCGGAGTCACCTAGTGCAG,8290 fluorescence intensity (a.u.)
3,TTGGGTGGCGTGTCCATGGCCATCATCGCCATGGCCTTGGCGGAGTCACCTAGTGCAG,8300 fluorescence intensity (a.u.)
4,CTTGTATTACACTACATAATACCACCACCTTTTTCCAGCTCGGAGTCACCTAGTGCAG,8220 fluorescence intensity (a.u.)
5,GCAGTCCAGTCCCTGACCTCTCCCCTATTTCCACTCTCGCCGGAGTCACCTAGTGCAG,9560 fluorescence intensity (a.u.)
6,AGAGTTGTTAAGTACACATGGCTCACCTTTTTTCAGTTACCGGAGTCACCTAGTGCAG,10700 fluorescence intensity (a.u.)
7,GTACAGCAGCAGCATCAGCATCAGCATATCTATCTACCTACGGAGTCACCTAGTGCAG,8430 fluorescence intensity (a.u.)
8,CGCCCGCTCGAAACAATCTCCCGCTGCGCTGCGGCGGCGCCGGAGTCACCTAGTGCAG,8170 fluorescence intensity (a.u.)
9,TGTTTTGTTGGACTTTCTTGGTCACCCAGCACGGCAATTTCGGAGTCACCTAGTGCAG,9480 fluorescence intensity (a.u.)
10,TCTCCTTCTTCTTATCTGCTACAGCAATTATATATTTTTCCGGAGTCACCTAGTGCAG,8270 fluorescence intensity (a.u.)
11,CATGCTTTCACCAGATGGTCCTTTTCATTGATAAATGTAACGGAGTCACCTAGTGCAG,8470 fluorescence intensity (a.u.)
12,GTGATATGTTATGCTGCTGTACCTTTTTTTTTCGCCCGCACGGAGTCACCTAGTGCAG,11400 fluorescence intensity (a.u.)
13,ACATGTGGGGCCTATTTATTTCTTTTTTTTTAAAAAAAAACGGAGTCACCTAGTGCAG,8480 fluorescence intensity (a.u.)
14,TCCCTAAATTTTGCTTATTTTCTTGTATATACTGTTTACACGGAGTCACCTAGTGCAG,11900 fluorescence intensity (a.u.)
15,CCACCACGGACTCCGCCGCCGCTCCCGCCACCGCCACATCCGGAGTCACCTAGTGCAG,10600 fluorescence intensity (a.u.)
16,CTCTTTTCTTCGATTCTCTTTCGGCTTTGCTTCTTCGGTCCGGAGTCACCTAGTGCAG,12900 fluorescence intensity (a.u.)
17,AGTTCGGGGTGGTTTAAAGTGTAAAAAAATGTTAATAAAACGGAGTCACCTAGTGCAG,8870 fluorescence intensity (a.u.)
18,TTAATTTGCTGACATATCTCTTCCGTTCTTGAATATTGATCGGAGTCACCTAGTGCAG,9000 fluorescence intensity (a.u.)
19,CTCTACTCTCTACTACTACTAGCTTCTGCTGCTTCTTCTCCGGAGTCACCTAGTGCAG,8200 fluorescence intensity (a.u.)
20,CAGGGGCAGTACTATCACAATTTCAAGTTCACCTGTCTCTCGGAGTCACCTAGTGCAG,8540 fluorescence intensity (a.u.)
21,TCGTTTTTTTGTGGGTCCTCATCTCCTCTCCTCCCACCACCGGAGTCACCTAGTGCAG,8060 fluorescence intensity (a.u.)

# Looked up one by one from above (2):
row,Sequence,binding signal
3,TTGGGTGGCGTGTCCATGGCCATCATCGCCATGGCCTTGGCGGAGTCACCTAGTGCAG,8300 fluorescence intensity (a.u.)
12,GTGATATGTTATGCTGCTGTACCTTTTTTTTTCGCCCGCACGGAGTCACCTAGTGCAG,11400 fluorescence intensity (a.u.)

# An excerpt from further up, as a working copy:
row,Sequence,binding signal
17,AGTTCGGGGTGGTTTAAAGTGTAAAAAAATGTTAATAAAACGGAGTCACCTAGTGCAG,8870 fluorescence intensity (a.u.)
18,TTAATTTGCTGACATATCTCTTCCGTTCTTGAATATTGATCGGAGTCACCTAGTGCAG,9000 fluorescence intensity (a.u.)

# Next records follow:

row,Sequence,binding signal
1,ACACGCCCAGTACACTCACATGCACCCAACTCAACTGCCCCGGAGTCACCTAGTGCAG,9510 fluorescence intensity (a.u.)
2,GTAATTGACGTGGACTTTTTTTAATTTGAGTATCTATAATCGGAGTCACCTAGTGCAG,8220 fluorescence intensity (a.u.)
3,ACGACGACGACAAATTTTCCGGTGTGTTTATAATTAATATCGGAGTCACCTAGTGCAG,8620 fluorescence intensity (a.u.)
4,ACCGCCAAATCGCCAATCTCCCACCTCGTCACGCATGCGTCGGAGTCACCTAGTGCAG,8890 fluorescence intensity (a.u.)
5,GCCGCTTCCATCTACTCGACTTGCAACCTGGTCATGAGAACGGAGTCACCTAGTGCAG,10100 fluorescence intensity (a.u.)
6,CGAGGAGCGGGGTGGGGTCGGAGGCGGGGAGGGAGGACGCCGGAGTCACCTAGTGCAG,16100 fluorescence intensity (a.u.)
7,ACCAACACGTACCTCCACATTGCAACCCATCCATCCGTCCCGGAGTCACCTAGTGCAG,8320 fluorescence intensity (a.u.)
8,CAACTCCGCTCGCCAATCCACAGCTGGCCTCCATTTCTTCCGGAGTCACCTAGTGCAG,8870 fluorescence intensity (a.u.)
9,CCGTGCCCAACGTTTGACCGTCCGTTTTATTTGAAAAATTCGGAGTCACCTAGTGCAG,10800 fluorescence intensity (a.u.)
10,CGCCGCCCGATCCGCCGCCACCGCCACCGCCACCGCCGGCCGGAGTCACCTAGTGCAG,11400 fluorescence intensity (a.u.)
11,GTCGTGACCCTCCTTGCCGTCCTCCTCCAAACCGACTTCCCGGAGTCACCTAGTGCAG,9650 fluorescence intensity (a.u.)
12,GCGTACGTTTTTTCATACCTGGACCCAGATGTATCTTTTCCGGAGTCACCTAGTGCAG,10200 fluorescence intensity (a.u.)
13,ATCTTGTTGTCTGATTATTGATTTTTCGCGAAACCATTTGCGGAGTCACCTAGTGCAG,11100 fluorescence intensity (a.u.)
14,CATCCGTGTATAAGTCGGTTTTTAAGTTCGTTCACCTTTGCGGAGTCACCTAGTGCAG,10000 fluorescence intensity (a.u.)
15,AGGGGAGGGGAGGGGAGCCCTTCGCCGGAGCGGCCAGGTTCGGAGTCACCTAGTGCAG,13600 fluorescence intensity (a.u.)
16,CGCCTCAGAGGTGGGCGGCAGGGTCTATTTTTATAATTTTCGGAGTCACCTAGTGCAG,9490 fluorescence intensity (a.u.)
17,CGTCAATTCATTGAGATCTCGGTCAGTTAGTCGGTATCCGCGGAGTCACCTAGTGCAG,8110 fluorescence intensity (a.u.)
18,GTAAACAAGCGATTCATTAATATTTACATTTCTCGATGCCCGGAGTCACCTAGTGCAG,8090 fluorescence intensity (a.u.)
19,GGTGGTAGAGGGTAAAAGGTACTGTCACATGTTCATTATTCGGAGTCACCTAGTGCAG,12800 fluorescence intensity (a.u.)
20,GCACGACGTACCATTGTTGATTATTCTCTACACGCACACACGGAGTCACCTAGTGCAG,8930 fluorescence intensity (a.u.)
21,CACTCGTACCATGCCATGACTTTCACGAGACCCTTTTTTACGGAGTCACCTAGTGCAG,8040 fluorescence intensity (a.u.)
